No constants are given. Whether binding was seen depends on the method and setting. In cells and extracts the contact can be indirect. For part of these data: Binding can be weak; no strength is given. Tags and fused reporters may be left off the sequences shown.

The chains behind the UniProt entries cited, without tags or fusion partners. Where a name states a change or a piece, a line headed by the entry shows the natural chain unless it says otherwise.
UniProt Q01668: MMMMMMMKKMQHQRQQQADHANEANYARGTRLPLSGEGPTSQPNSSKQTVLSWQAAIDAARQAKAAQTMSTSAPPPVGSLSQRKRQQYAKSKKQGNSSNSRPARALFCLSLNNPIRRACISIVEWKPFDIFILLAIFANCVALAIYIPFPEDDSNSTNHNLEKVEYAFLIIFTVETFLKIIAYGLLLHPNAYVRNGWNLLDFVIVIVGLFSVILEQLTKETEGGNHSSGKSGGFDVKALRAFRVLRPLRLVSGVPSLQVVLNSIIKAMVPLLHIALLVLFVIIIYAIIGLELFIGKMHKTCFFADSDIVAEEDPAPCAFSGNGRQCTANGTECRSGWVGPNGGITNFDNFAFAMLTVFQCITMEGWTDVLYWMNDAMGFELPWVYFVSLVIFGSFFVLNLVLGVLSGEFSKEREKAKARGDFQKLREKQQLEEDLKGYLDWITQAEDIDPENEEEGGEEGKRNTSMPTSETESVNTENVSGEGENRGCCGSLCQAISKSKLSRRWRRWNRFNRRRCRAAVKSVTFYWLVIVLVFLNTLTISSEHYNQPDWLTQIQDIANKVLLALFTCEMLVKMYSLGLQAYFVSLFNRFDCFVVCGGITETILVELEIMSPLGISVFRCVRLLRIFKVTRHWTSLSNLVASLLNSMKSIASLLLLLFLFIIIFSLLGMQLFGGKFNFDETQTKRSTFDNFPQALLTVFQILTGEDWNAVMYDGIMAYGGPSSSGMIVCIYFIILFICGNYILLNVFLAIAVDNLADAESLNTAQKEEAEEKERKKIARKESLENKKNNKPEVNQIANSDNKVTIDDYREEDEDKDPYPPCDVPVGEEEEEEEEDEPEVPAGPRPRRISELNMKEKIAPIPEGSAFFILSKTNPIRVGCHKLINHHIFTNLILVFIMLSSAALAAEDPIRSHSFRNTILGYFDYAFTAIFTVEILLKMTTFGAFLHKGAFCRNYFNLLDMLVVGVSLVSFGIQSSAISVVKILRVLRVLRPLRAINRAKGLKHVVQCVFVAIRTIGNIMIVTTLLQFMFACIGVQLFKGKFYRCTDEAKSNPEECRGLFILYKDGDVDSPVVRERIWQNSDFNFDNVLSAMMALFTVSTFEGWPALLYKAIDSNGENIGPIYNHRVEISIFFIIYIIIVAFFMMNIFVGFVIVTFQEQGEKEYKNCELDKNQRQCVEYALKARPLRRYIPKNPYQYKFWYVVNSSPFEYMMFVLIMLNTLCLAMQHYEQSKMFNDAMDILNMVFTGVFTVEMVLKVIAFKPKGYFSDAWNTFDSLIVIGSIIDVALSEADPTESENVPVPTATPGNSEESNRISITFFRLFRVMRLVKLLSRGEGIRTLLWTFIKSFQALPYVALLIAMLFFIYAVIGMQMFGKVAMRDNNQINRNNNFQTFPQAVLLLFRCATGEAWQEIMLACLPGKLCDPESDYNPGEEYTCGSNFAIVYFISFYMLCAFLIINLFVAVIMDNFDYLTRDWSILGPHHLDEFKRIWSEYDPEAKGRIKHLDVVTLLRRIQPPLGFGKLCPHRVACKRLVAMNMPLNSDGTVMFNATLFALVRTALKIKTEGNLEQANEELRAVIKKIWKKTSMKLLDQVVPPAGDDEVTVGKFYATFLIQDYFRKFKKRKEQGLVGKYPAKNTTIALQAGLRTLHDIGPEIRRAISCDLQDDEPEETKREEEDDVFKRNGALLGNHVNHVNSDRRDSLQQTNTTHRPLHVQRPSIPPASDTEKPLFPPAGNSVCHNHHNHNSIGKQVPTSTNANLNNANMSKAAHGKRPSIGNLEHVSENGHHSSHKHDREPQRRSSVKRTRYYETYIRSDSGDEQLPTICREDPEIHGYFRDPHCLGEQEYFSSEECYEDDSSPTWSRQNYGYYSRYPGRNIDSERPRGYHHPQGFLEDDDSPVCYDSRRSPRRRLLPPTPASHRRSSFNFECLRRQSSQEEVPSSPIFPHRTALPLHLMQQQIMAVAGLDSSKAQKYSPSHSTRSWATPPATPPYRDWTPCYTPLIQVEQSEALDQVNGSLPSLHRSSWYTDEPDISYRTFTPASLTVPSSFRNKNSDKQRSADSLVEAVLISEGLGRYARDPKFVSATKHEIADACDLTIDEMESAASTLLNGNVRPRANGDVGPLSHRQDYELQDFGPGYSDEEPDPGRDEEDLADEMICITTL
UniProt P04406: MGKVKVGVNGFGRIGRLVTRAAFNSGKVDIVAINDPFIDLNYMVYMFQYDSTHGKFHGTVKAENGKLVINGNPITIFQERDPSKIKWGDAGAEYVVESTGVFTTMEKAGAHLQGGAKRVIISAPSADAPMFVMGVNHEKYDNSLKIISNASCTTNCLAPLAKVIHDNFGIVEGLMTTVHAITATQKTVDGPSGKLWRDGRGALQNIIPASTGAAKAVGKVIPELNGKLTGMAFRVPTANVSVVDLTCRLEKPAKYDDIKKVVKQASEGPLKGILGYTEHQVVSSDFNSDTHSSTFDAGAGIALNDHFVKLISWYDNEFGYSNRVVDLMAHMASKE

Experiment [1] has as its target GST-Cav1.3 42_(C-term) (aa 1449–2137), long Cav1.3 C terminus (human) (UniProt Q01668). As to the kind of experiment: pull-down; GST-fusion proteins on glutathione Sepharose beads incubated with whole-cell lysates of HEK293 cells transfected with HA-RBP2, 3 h at 4 °C; lysis buffer 1× PBS, 0.5% Triton X-100 with protease inhibitors; four washes; western blot with anti-HA and anti-GAPDH; only the target purified. Background: Immunoblotting shows a protein as a band on a membrane.

The target in experiment [2] is GST-Cav1.3 43S_(C-term) (aa 1449–1679), short Cav1.3 C terminus (human) (UniProt Q01668). Described as above.
Experiment [3] deals with YFP-Cav1.3 42_(C-term) (Cav1.3-EF-preIQ-IQ-PostIQ-aa1453–2137, full-length C terminus) (human) (UniProt Q01668). As to the kind of experiment: co-IP; HA-rRBP2 and YFP-Cav1.3 42_(C-term) co-expressed in tsA-201 cells; lysate (1× PBS, 0.5% Triton X-100) with anti-GFP antibody or mouse IgG and Protein G-sepharose, 4 h at 4 °C; RBP2 detected with anti-RBP2-1318.
In experiment [4] the target is GST (glutathione-S-transferase) alone. As to the kind of experiment: pull-down; GST-fusion proteins on glutathione Sepharose beads incubated with whole-cell lysates of HEK293 cells transfected with HA-RBP2, 3 h at 4 °C; lysis buffer 1× PBS, 0.5% Triton X-100 with protease inhibitors; four washes; western blot with anti-HA and anti-GAPDH; only the target purified.

As to GAPDH (from UniProt P04406 1-335), the binding entry in experiment [1] and in experiment [2] was “no binding” each time.

B1: HA-tagged rat RIM-binding protein 2 (HA-rRBP2) (protein, UniProt Q9JIR1 1-1049)
chain: MREAAERRQQLELEHEQALAILNAKQQEIQLLQQSKVRELEEKCRVQSEQFNLLSRDLEKFRQHAGSIDLLGSNSVALLDVPLAPGKPFSQYMNGLATSIHKGHEGPTGHYSVIGDYIPLSGDKLESPCVKPSFLLRSSSPRCRFESEMDDDRSSNKSKHSSSGKVHLCVARYSYNPFDGPNENPEAELPLTAGKYLYVYGDMDEDGFYEGELLDGQRGLVPSNFVDFIQDNESRFAGTLGSEQDQNFLNHSGISLERDSILHLHSPTQVDSGITDNGGGTLDVNIDDIGEDIVPYPRKITLIKQLAKSVIVGWEPPAVPPGWGTVSSYNVLVDKETRMSLALGRRTKALIEKLNTAACTYRISVQCVTSRGNSDELQCTLLVGKDVVVAPSQLRVDNITQISAQLSWLPTNSNYSHIIFLNEEELDIVKAARYKYQFFNLRPNMAYKVKVLAQPHQMPWQLPLEQREKDEACVEFSTLPAGPPAPPQDVTVQAGATTASVQVSWKPPALTPTGLSNGANVTGYGVYAKGQRVAEVIAPTANGAAVELVRLRSLEAKAVSVRTLSAQGESMDSALAAIPPDLLVPPAPHPRTAPPPKPLTSDMDTKDLGPHVKVDESWEQSRPPGPAHGHMLEPPDMHSTGPGRRSPSPSRILPQPQGAPVSTTVAKAMAREAAQRVAETSKLEKRSLFLEQSSAGPYANSDEEDGYASPEVKRRGTSVDDFLKGSELGQQPHCCHGDEYHTESSRGSDLSDIMEEDEEELYSEMQLEDGGRRRPSGTSHNALKILGNSALMGRGDRMEHVSRRYSHSGGGPQRHRPMAPSIDEYTGRDHLSPDFYDESETDPGAEELPARIFVALFDYDPLTMSPNPDAAEEELPFKEGQIIKVYGDKDADGFYRGETCARLGLIPCNMVSEIHADDEEMMDQLLRQGFLPLNTPVEKIERSRRSGRGHSVPTRRMVALYDYDPRESSPNVDVEAELLFCTGDIITVFGEIDEDGFYYGELNGQKGLVPSNFLEEVPDDVEVHLSDAPPHYSHDPPMRTKAKRVSQPP
With B1, the binding result in experiment [3] is on record as “binds”; in experiment [4], “no binding”; in experiment [1] it was “binds”; in experiment [2], “no binding”.

These data come from publication PMC6960213.
